The subject of this assay is Salmonella enterica serovar Typhimurium SL1344. The assay can be described thus: normalized intracellular growth (luminescence, IQM-normalized) in RAW264.7 macrophages (fraction of plate interquartile mean); higher = more bacterial growth (less inhibition). The settings on record: 10 µM.

± gives the standard deviation of the averaged measurements. Whole data set: some 1,600 compounds, median “normalized intracellular growth (luminescence, IQM-normalized) in RAW264.7 macrophages” near 1, cut for the lowest 2% near 0.43. The list shows a part of the results.

In the case of `O=c1n(Cl)c(=O)n(Cl)c(=O)n1Cl`, the normalized intracellular growth runs as follows: (time point: T3 (3 h)) 1.05 ± 0.043; (time point: Tfinal (~6 h)) 1.08 ± 0.064.

Take `COP(=O)(OC)C(O)C(Cl)(Cl)Cl` (configuration not stated): the normalized intracellular growth was found to be 1.02 ± 0.033 (time point: T3 (3 h)) and 0.756 ± 0.31 (time point: Tfinal (~6 h)).

As to `Oc1ccc2c3c1O[C@H]1[C@@H](O)CC[C@@]4(O)[C@@H](C2)N(CC2CCC2)CC[C@]314`, the normalized intracellular growth by setting is: (time point: T3 (3 h)) 0.994 ± 0.047; (time point: Tfinal (~6 h)) 0.887 ± 0.27.

`CC(=O)O[C@H]1CC[C@@]2(C)C(=CC[C@@H]3[C@@H]2CC[C@]2(C)C(=O)CC[C@@H]32)C1`: the normalized intracellular growth is, setting by setting: (time point: T3 (3 h)) 0.984 ± 0.015; (time point: Tfinal (~6 h)) 1.12 ± 0.11.

In the case of `CN1C[C@H](CNC(=O)OCc2ccccc2)C[C@@H]2c3cccc4c3c(cn4C)C[C@H]21`, the normalized intracellular growth by setting is: (time point: T3 (3 h)) 0.458 ± 0.2; (time point: Tfinal (~6 h)) 0.839 ± 0.23.

In the case of `CC(C)c1cccc(C(C)C)c1O`, the normalized intracellular growth by setting is: (time point: T3 (3 h)) 1.04 ± 0.047; (time point: Tfinal (~6 h)) 1 ± 0.14.

Consider `CC[N+]1(C)CCCC(OC(=O)C(O)(c2ccccc2)c2ccccc2)C1` (configuration not stated), for which the normalized intracellular growth by setting is: (time point: T3 (3 h)) 0.855 ± 0.07; (time point: Tfinal (~6 h)) 0.822 ± 0.13.

With `c1ccc2c(c1)OCC(C1=NCCN1)O2` (configuration not stated), the normalized intracellular growth by setting is: (time point: T3 (3 h)) 0.997 ± 0.074; (time point: Tfinal (~6 h)) 0.914 ± 0.12.

For the compound `CC[C@@H](CO)NC(=O)[C@@H]1C=C2c3cccc4c3c(cn4C)C[C@H]2N(C)C1`, the normalized intracellular growth was 0.9989 ± 0.007 (time point: T3 (3 h)) and 0.88 ± 0.16 (time point: Tfinal (~6 h)).

On to `COc1cc2c(c(OC)c1OC)-c1ccc(OC)c(=O)cc1[C@@H](NC(C)=O)CC2`, for which the normalized intracellular growth by setting is: (time point: T3 (3 h)) 0.868 ± 0.062; (time point: Tfinal (~6 h)) 0.929 ± 0.046.

As to `C[C@]12CC[C@H](O)CC1=CC[C@@H]1[C@@H]2CC[C@]2(C)C(=O)CC[C@@H]12`, the normalized intracellular growth is, setting by setting: (time point: T3 (3 h)) 1.08 ± 0.025; (time point: Tfinal (~6 h)) 1.09 ± 0.13.

On to `CC1C=CC=CCCC=CC=CC=CC=CC(OC2OC(C)C(O)C(N)C2O)CC2OC(O)(CC(O)C(O)CCC(O)CC(O)CC(O)CC(=O)OC(C)C(C)C1O)CC(O)C2C(=O)O` (configuration not stated), for which the normalized intracellular growth reads like this: (time point: T3 (3 h)) 0.984 ± 0.055; (time point: Tfinal (~6 h)) 0.908 ± 0.053.

In the case of `Cc1cc(C(C#N)c2ccc(Cl)cc2)c(Cl)cc1NC(=O)c1cc(I)cc(I)c1O` (configuration not stated), the normalized intracellular growth by setting is: (time point: T3 (3 h)) 1.03 ± 0.078; (time point: Tfinal (~6 h)) 1.08 ± 0.096.

`COc1ccc2c(c1OC)C(=O)O[C@@H]2[C@H]1c2cc3c(cc2CCN1C)OCO3` gave a normalized intracellular growth (time point: T3 (3 h)) of 1.01 ± 0.029 and a normalized intracellular growth (time point: Tfinal (~6 h)) of 1.06 ± 0.033.

Take `O=C(O)c1nn(Cc2ccc(Cl)cc2Cl)c2ccccc12`: the normalized intracellular growth runs as follows: (time point: T3 (3 h)) 0.985 ± 0.1; (time point: Tfinal (~6 h)) 0.912 ± 0.18.

Consider `C[C@@H]1C[C@@H]([C@H](O)CC2CC(=O)NC(=O)C2)C(=O)[C@@H](C)C1`, for which the normalized intracellular growth (time point: T3 (3 h)) came to 0.986 ± 0.025 and the normalized intracellular growth (time point: Tfinal (~6 h)) worked out at 1.34 ± 0.13.

Consider `CCC1(C2=NCCN2)Cc2ccccc2O1` (configuration not stated), for which the normalized intracellular growth (time point: T3 (3 h)) amounted to 1.01 ± 0.033 and the normalized intracellular growth (time point: Tfinal (~6 h)) came out at 0.868 ± 0.28.

Consider `CC[C@@H](CO)NC(=O)[C@@H]1C=C2c3cccc4[nH]cc(c34)C[C@H]2N(C)C1`, for which the normalized intracellular growth by setting is: (time point: T3 (3 h)) 1.14 ± 0.061; (time point: Tfinal (~6 h)) 1.08 ± 0.046.

For `CCCCOC(=O)c1ccccc1C(=O)OCCCC`, the normalized intracellular growth reads like this: (time point: T3 (3 h)) 1.029 ± 0.01; (time point: Tfinal (~6 h)) 1.11 ± 0.15.

Take `CC(O)(CS(=O)(=O)c1ccc(F)cc1)C(=O)Nc1ccc(C#N)c(C(F)(F)F)c1` (configuration not stated): the normalized intracellular growth was determined as 1.16 ± 0.098 (time point: T3 (3 h)) and 0.987 ± 0.071 (time point: Tfinal (~6 h)).

For `CCOC(=O)c1cncn1[C@H](C)c1ccccc1`, the normalized intracellular growth was 1 ± 0.064 (time point: T3 (3 h)) and 1.14 ± 0.16 (time point: Tfinal (~6 h)).

For `O=C(CCCN1CCC2(CC1)C(=O)NCN2c1ccccc1)c1ccc(F)cc1`, the normalized intracellular growth is, setting by setting: (time point: T3 (3 h)) 0.773 ± 0.12; (time point: Tfinal (~6 h)) 1 ± 0.12.

Turning to `O=[N+]([O-])O[C@H]1CO[C@H]2[C@@H]1OC[C@H]2O[N+](=O)[O-]`, the normalized intracellular growth was found to be 1.003 ± 0.0081 (time point: T3 (3 h)) and 0.83 ± 0.048 (time point: Tfinal (~6 h)).

For `CC[C@@H](C)C(=O)O[C@H]1[C@H](O)[C@H]2[C@@H](CN3C[C@@H](C)CC[C@H]3[C@@]2(C)O)[C@@H]2C[C@]34O[C@]5(O)[C@@H](OC(=O)[C@@](C)(O)CC)CC[C@@]3(C)[C@@H]5[C@@H](OC(C)=O)[C@@H](OC(C)=O)[C@H]4[C@@]21O`, the normalized intracellular growth is, setting by setting: (time point: T3 (3 h)) 0.971 ± 0.073; (time point: Tfinal (~6 h)) 1.07 ± 0.061.

With `O=c1cccc2n1C[C@@H]1CNC[C@H]2C1`, the normalized intracellular growth reads like this: (time point: T3 (3 h)) 1.09 ± 0.055; (time point: Tfinal (~6 h)) 0.975 ± 0.091.

For the compound `NCC1(CC(=O)O)CCCCC1`, the normalized intracellular growth by setting is: (time point: T3 (3 h)) 1.05 ± 0.082; (time point: Tfinal (~6 h)) 1.19 ± 0.17.
